Results as given in the supplement of paper PMC4635364.
Where a name gives a salt, the structure may show the parent alone. The list shows a part of the results. Single values are uncertain here, since repeats match poorly.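 ReNCell VM, a human fetal ventral-midbrain neural progenitor line, was differentiated without mitogens. Blinded raters scored images stained for doublecortin (early neurons) or tyrosine hydroxylase (dopaminergic neurons) against untreated wells (0 = no change). Scores were averaged across repeats and both raters, and compounds averaging 2 or more were selected as hits for retesting.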

System: ReNCell VM
Assay: dopaminergic neuron differentiation score (TH+ cell fraction vs untreated, manual image score) (score (0 to 3)); higher = more TH+ dopaminergic neuron differentiation
Conditions: library: LOPAC; 2 uM; 4 weeks; BDNF 10 ng/ml + GDNF 10 ng/ml

Dopaminergic neuron differentiation score, active:
CCn1nc(C(=O)O)c(=O)c2cc3c(cc21)OCO3 [Cinoxacin] 3

Dopaminergic neuron differentiation score, inactive:
O=C(/C=C/c1ccc(O)cc1)c1ccc(O)cc1O [Isoliquiritigenin] 0
Cc1cc(C(C)(C)C)cc(C)c1CC1=NCCN1 [Xylometazoline hydrochloride] 0
Cc1cnc(C(=O)NCCc2ccc(S(=O)(=O)NC(=O)NC3CCCCC3)cc2)cn1 [Glipizide] 0
CC(=O)c1ccc(S(=O)(=O)NC(=O)NC2CCCCC2)cc1 [Acetohexamide] 1
CC(C)(C)c1ccc(/C=C/C(=O)Nc2ccc3c(c2)OCCO3)cc1 0
CCCCNc1cc(C(=O)O)cc(S(N)(=O)=O)c1Oc1ccccc1 [Bumetanide] 0
CC(C)C(=O)Nc1ccc([N+](=O)[O-])c(C(F)(F)F)c1 [Flutamide] 0
CCn1c(=O)[nH]c2cc(Cl)c(Cl)cc21 0
Oc1cc(O)cc(/C=C/c2ccc(O)c(O)c2)c1 [Piceatannol] 0
COc1ccccc1N1CCN(CCCCN2C(=O)c3ccccc3C2=O)CC1 [NAN-190 hydrobromide] 0
O=C(C1CCCCC1)N1CC(=O)N2CCc3ccccc3C2C1 (stereo not drawn) [Praziquantel] 0
CC(C)N(CCC(=O)c1ccc2ccccc2c1)Cc1ccccc1 0
CC(C)(C)NCC(O)c1ccc(O)c(CO)c1 (stereo not drawn) [Salbutamol] 0
CC(C)(Oc1ccc(C2CC2(Cl)Cl)cc1)C(=O)O (stereo not drawn) [Ciprofibrate] 0
CC(CCc1ccccc1)NCC(O)c1ccc(O)c(C(N)=O)c1 (stereo not drawn) [Labetalol hydrochloride] 0
CN(C)CCCN1c2ccccc2Sc2ccc(Cl)cc21 [Chlorpromazine hydrochloride] 0
COc1cc2c(CCNC(C)=O)c[nH]c2cc1Cl [6-Chloromelatonin] 0
CCCN(CC1CC1)c1nc(C)nc(Nc2c(Cl)cc(Cl)cc2Cl)c1Cl 0
CN[C@H]1CC[C@@H](c2ccc(Cl)c(Cl)c2)c2ccccc21 [Sertraline hydrochloride] 0
CC(C(O)c1ccc(O)cc1)N1CCC(Cc2ccccc2)CC1 (stereo not drawn) [Ifenprodil tartrate] 0
O=C1NCC2(CCN(CCc3ccccc3)CC2)O1 [Fenspiride hydrochloride] 0
N=C(N)c1ccc(OCCCCCOc2ccc(C(=N)N)cc2)cc1 [Pentamidine isethionate] 0
OC[C@H]1O[C@@H](n2cnc3c(N[C@H]4CCC[C@@H]4O)ncnc32)[C@H](O)[C@@H]1O 0
O=C1Nc2ccc(I)cc2/C1=C/c1cc(Br)c(O)c(Br)c1 0
C1COC(NC(C2CC2)C2CC2)=N1 [Rilmenidine hemifumarate] 0
CC(=O)O[C@]1(C(C)=O)CC[C@H]2[C@@H]3C=C(Cl)C4=CC(=O)[C@@H]5C[C@@H]5[C@]4(C)[C@H]3CC[C@@]21C [Cyproterone acetate] 0
O=c1c(O)c(-c2cc(O)c(O)c(O)c2)oc2cc(O)cc(O)c12 [Myricetin] 0
CN1CCN2c3ccccc3Cc3ccccc3C2C1 (stereo not drawn) [Mianserin hydrochloride] 0
COc1ccc(CCCOC(Cn2ccnc2)c2ccc(OC)cc2)cc1 (stereo not drawn) 0
NCCCCNCCCN [Spermidine trihydrochloride] 0
O=C(O)c1cc(=O)c2c(Cl)cc(Cl)cc2[nH]1 [5,7-Dichlorokynurenic acid] 1
CN(C)CC/C=C1/c2ccccc2Sc2ccc(Cl)cc21 [Chlorprothixene hydrochloride] 0

Random excerpt: 2 entries already listed, in no set order.
Dopaminergic neuron differentiation score, inactive:
O=C1Nc2ccc(I)cc2/C1=C/c1cc(Br)c(O)c(Br)c1 0
CC(CCc1ccccc1)NCC(O)c1ccc(O)c(C(N)=O)c1 (stereo not drawn) [Labetalol hydrochloride] 0
